{"source": "patent US20050124794A1", "about": "(published 2005)", "key": {"[1]": {"biological_target": "T1, Histidine-Proline rich (H/P) domain of HPRG (rabbit, UniProt Q28640 321-421, limits assumed)", "T1 construct": "also called HPRG-H/P; HPRG-H/P domain", "T1 sequence": "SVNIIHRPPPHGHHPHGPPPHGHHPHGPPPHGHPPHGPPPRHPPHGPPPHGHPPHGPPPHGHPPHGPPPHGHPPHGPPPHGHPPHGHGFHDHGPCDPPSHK", "test": "competition with 10 nM biotin-HKa on plate coated with chicken gizzard Tpm (FIG. 15B); H/P domain alone", "protocol": "(§1) FIG. 15A: increasing amounts of a biotinylated HPRG, HKa or HKa-D5 were added to a 96 well Tpm-coated plate. FIG. 15B: 10 nM biotin-HKa was added to a 96 well Tpm-coated plate. Increasing amounts of HPRG-H/P domain or HPRG-N/C fragment were added to the wells.\n(§2) Binding to immobilized Tpm is carried out either by a competition assay with a known ligand, biotin-HKa, or by direct binding of the corresponding biotinylated protein. Plates are coated at room temperature with chicken gizzard Tpm (Sigma) in Tris buffer-saline (TBS) (200 ng/well). After incubation for 2 hours, wells are washed with TBS, then 1% BSA/TBS/Tween-20 is added to each well and incubate at 37° C. for two hours. HKa (Enzyme Laboratories) that had been previously biotinylated with EZ-Link (Pierce) according to the manufacturers instructions, is added to the plate at a concentration of 10 nM together with ZnCl₂ (10 μM) and the appropriate concentration of the protein, domain or peptide competitor. The plates are incubated at room temperature and then washed with TBS/Tween-20. Avidin-HRP is added, incubated for 20 minutes at room temperature, washed with TBS/Tween-20 and the chromogenic substrate is added. The reaction is stopped with sulfuric acid and the plate read at 490 nm."}, "[2]": {"biological_target": "T2, Two-chain high molecular weight kininogen (HKa) (human, UniProt P01042 19-380; P01042 390-644, biotin-labelled (NHS (sulfo)-LC-biotin / EZ-Link) in the binding and competition assays)", "T2 construct": "Bought from Enzyme Research Laboratories; The cleavage that makes the two-chain form is not described; also called two chain human kininogen; biotin-HKa", "T2 sequence 1": "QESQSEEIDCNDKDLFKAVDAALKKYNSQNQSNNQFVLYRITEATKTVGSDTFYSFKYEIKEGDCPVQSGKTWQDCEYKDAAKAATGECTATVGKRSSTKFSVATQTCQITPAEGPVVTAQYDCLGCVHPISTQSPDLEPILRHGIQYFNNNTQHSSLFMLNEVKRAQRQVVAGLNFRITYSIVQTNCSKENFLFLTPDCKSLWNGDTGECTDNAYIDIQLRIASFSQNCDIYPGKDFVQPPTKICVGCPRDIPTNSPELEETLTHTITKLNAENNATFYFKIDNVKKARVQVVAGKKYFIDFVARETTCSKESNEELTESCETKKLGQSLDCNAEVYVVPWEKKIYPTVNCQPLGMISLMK", "T2 sequence 2": "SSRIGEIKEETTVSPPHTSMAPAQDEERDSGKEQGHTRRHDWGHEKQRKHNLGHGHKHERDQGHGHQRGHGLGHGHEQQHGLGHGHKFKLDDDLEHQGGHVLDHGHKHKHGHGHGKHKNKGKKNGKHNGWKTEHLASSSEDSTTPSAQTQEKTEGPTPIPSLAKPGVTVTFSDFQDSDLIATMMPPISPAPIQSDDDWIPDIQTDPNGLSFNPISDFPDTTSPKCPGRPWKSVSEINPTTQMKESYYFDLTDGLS", "test": "biotin-HKa on chicken gizzard Tpm immobilized in 96-well microplates, Zn2+-dependent; nonlinear regression; Example II", "protocol": "(§3) To measure the binding of HKa to purified Tpm, 96 well microplates were coated with 20 μg/ml of chicken gizzard Tpm (Sigma), or bovine serum albumin (BSA), as a control. Wells were then blocked by incubation with phosphate buffered saline containing 5% nonfat milk, and incubated with increasing concentrations of HKa (0.01-20 nM) for 2 hours. Specifically-bound HKa was quantitated as described for cell binding assays (van Iwaarden et al., supra, and by assessing the ability of a 100-fold molar excess of unlabeled HKa to compete with biotin-HKa for binding."}, "[3]": {"biological_target": "T3, Rabbit histidine-proline rich glycoprotein (HPRG) (rabbit, UniProt Q28640 9-526, biotinylated in FIG. 15A)", "T3 construct": "also called rabbit HPRG; biotinylated HPRG", "T3 sequence": "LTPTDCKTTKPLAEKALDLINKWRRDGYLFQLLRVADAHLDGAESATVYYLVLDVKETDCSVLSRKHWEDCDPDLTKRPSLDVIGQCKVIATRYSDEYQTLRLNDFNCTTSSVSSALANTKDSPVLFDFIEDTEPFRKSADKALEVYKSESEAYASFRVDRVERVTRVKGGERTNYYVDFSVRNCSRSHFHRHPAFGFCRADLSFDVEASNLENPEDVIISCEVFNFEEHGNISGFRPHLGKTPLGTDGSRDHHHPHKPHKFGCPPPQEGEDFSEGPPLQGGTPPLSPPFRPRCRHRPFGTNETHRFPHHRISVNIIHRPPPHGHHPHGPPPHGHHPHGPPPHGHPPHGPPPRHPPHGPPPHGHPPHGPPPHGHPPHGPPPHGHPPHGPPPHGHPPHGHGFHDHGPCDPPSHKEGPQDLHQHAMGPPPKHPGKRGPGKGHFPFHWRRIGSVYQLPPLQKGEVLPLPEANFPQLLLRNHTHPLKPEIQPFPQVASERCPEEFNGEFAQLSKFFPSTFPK", "test": "biotinylated HPRG on plate coated with chicken gizzard Tpm (FIG. 15A); whole rabbit HPRG", "protocol": "as §1, §2"}, "[4]": {"biological_target": "T2, Two-chain high molecular weight …", "test": "plate binding assay on immobilized chicken gizzard Tpm (FIG. 15); FIG. 15 plate assay, later example", "protocol": "as §1, §2\n(§4) This value is identical to that obtain in vivo with HUVECs."}, "[5]": {"biological_target": "T4, Recombinant HKa domain 5 (HKa D5) (human, UniProt P01042 402-526)", "T4 construct": "also called HK-D5; D5 domain of HKa", "T4 sequence": "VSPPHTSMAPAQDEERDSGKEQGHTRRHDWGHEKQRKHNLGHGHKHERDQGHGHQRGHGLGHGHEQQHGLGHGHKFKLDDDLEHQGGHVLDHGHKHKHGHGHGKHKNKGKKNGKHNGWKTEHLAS", "test": "plate binding assay on immobilized chicken gizzard Tpm (FIG. 15); FIG. 15 plate assay, later example", "protocol": "as §1, §2, §4"}, "[6]": {"biological_target": "T4, Recombinant HKa domain 5 (HKa D5)", "test": "calculated from the IC50 of HKa D5 against biotin-HKa on immobilized Tpm: Kd(D5)=IC50/(1+[HKa]/Kd(HKa)); estimated from blocking of HKa binding", "protocol": "(§5) FIGS. 7A-7C show specific binding of HKa to purified immobilized Tpm and its inhibition. […] Plates were incubated with increasing concentrations of biotin-HKa in the absence or presence of 10 μM Zn²⁺. […] The IC₅₀ for this inhibition was about 8.1 nM."}, "[7]": {"biological_target": "T2, Two-chain high molecular weight …", "test": "biotin-HKa on chicken gizzard Tpm immobilized to polystyrene, with and without 10 µM Zn2+ (legend of FIG. 7A); legend of FIG. 7A", "protocol": "as §5, §3"}, "[8]": {"biological_target": "T4, Recombinant HKa domain 5 (HKa D5)", "test": "competition ELISA against 10 nM biotin-HKa on immobilized chicken gizzard Tpm, 10 uM ZnCl2; Kd by non-linear regression"}}}
{"binder": "Chicken gizzard tropomyosin (Tpm), purified (other, Bought from Sigma and coated on 96-well plates; also called purified Tpm; immobilized Tpm) MEAIKKKMQMLKLDKENAIDRAEQAEADKKQAEDRCKQLEEEQQGLQKKLKGTEDEVEKYSESVKEAQEKLEQAEKKATDAEAEVASLNRRIQLVEEELDRAQERLATALQKLEEAEKAADESERGMKVIENRAMKDEEKMELQEMQLKEAKHIAEEADRKYEEVARKLVVLEGELERSEERAEVAESRVRQLEEELRTMDQSLKSLIASEEEYSTKEDKYEEEIKLLGEKLKEAETRAEFAERSVAKLEKTIDDLEESLASAKEENVGIHQVLDQTLLELNNL", "values": [{"measurement": "Kd", "setting": "[1]", "result": "~2", "unit": "nM"}, {"measurement": "Kd", "setting": "[2]", "result": "~2.6", "unit": "nM"}, {"measurement": "Kd", "setting": "[3]", "result": "~2", "unit": "nM"}, {"measurement": "Kd", "setting": "[4]", "result": "~1", "unit": "nM"}, {"measurement": "Kd", "setting": "[5]", "result": "~1", "unit": "nM"}, {"measurement": "Kd", "setting": "[6]", "result": "~2.1", "unit": "nM"}, {"measurement": "Kd", "setting": "[7]", "result": "~2.5", "unit": "nM"}, {"measurement": "Kd", "setting": "[8]", "result": 1, "unit": "nM"}]}
